According to US20250194601A1, “PYRIDAZINONE COMPOUND OR SALT THEREOF AND PEST CONTROL AGENT CONTAINING IT” (ISHIHARA SANGYO KAISHA, LTD., priority 2022, published 2025):
Some entries share one result that the patent states for a list of compounds.

What follows are molecules tested on two-spotted spider mite (Tetranychus urticae) (assay: Test Example 3: effects against two-spotted spider mite, kidney bean leaf dip). Conditions: 50 ppm, adults, 3rd day after the application.
Format: in vivo
Procedure, shortened: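 Kidney bean leaves carrying about 20 adult mites dipped in test solution at 800, 200 or 50 ppm, air-dried, kept lit at 25° C. Dead adults, including dropped or moribund ones, counted on day 3 to give mortality (%).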

| Compound | mortality [%] |
| --- | --- |
| Cc1cc(C(F)(F)F)cc(C)c1-n1nc(C)c(O)c(-n2ccc(Cl)n2)c1=O [2-447] | ≥ 80 |

Same assay, conditions: 200 ppm, adults, 3rd day after the application

| Compound | mortality [%] |
| --- | --- |
| CCc1nn(-c2ccc(OC(F)(F)F)cc2C)c(=O)c(-n2cc(Cl)c(C(F)(F)F)n2)c1O [2-387] | ≥ 80 |
| CCc1nn(-c2c(C)cc(OC(F)(F)F)cc2Br)c(=O)c(-n2cc(Cl)c(C(F)(F)F)n2)c1O [2-388] | ≥ 80 |
| CCc1nn(-c2c(Cl)cc(C(F)(F)F)cc2Cl)c(=O)c(-n2cc(Cl)c(C)n2)c1O [2-390] | ≥ 80 |
| CCc1nn(-c2c(Cl)cc(C(F)(F)F)cc2Cl)c(=O)c(-n2cc(C)c(Cl)n2)c1O [2-393] | ≥ 80 |
| CCc1nn(-c2c(Cl)cc(C(F)(F)F)cc2Cl)c(=O)c(-n2cc(Br)c(Cl)n2)c1O [2-394] | ≥ 80 |
| CCc1nn(-c2c(Cl)cc(C(F)(F)F)cc2Cl)c(=O)c(-n2cc(Cl)c(Cl)n2)c1O [2-395] | ≥ 80 |
| CCc1nn(-c2c(Cl)cc(C(F)(F)F)cc2Cl)c(=O)c(-n2cc(I)c(Cl)n2)c1O [2-396] | ≥ 80 |
| CCc1nn(-c2c(C)cc(OC(F)(F)F)cc2Cl)c(=O)c(-n2cc(Cl)c(C(F)(F)F)n2)c1O [2-398] | ≥ 80 |
| CCc1nn(-c2c(C)cc(C(F)(F)F)cc2Cl)c(=O)c(-n2cc(C(F)(F)F)c(Cl)n2)c1O [2-399] | ≥ 80 |
| CCc1nn(-c2c(C)cc(OC(F)(F)F)cc2Cl)c(=O)c(-n2cc(C(F)(F)F)c(Cl)n2)c1O [2-403] | ≥ 80 |
| CCc1nn(-c2c(Cl)cc(C(F)(F)F)cc2Br)c(=O)c(-n2cc(Cl)c(C(F)(F)F)n2)c1O [2-404] | ≥ 80 |
| CCc1nn(-c2c(C)cc(C(F)(F)F)cc2C)c(=O)c(-n2cc(Cl)c(C)n2)c1O [2-409] | ≥ 80 |
| CCc1nn(-c2c(C)cc(OC(F)(F)F)cc2C)c(=O)c(-n2cc(Br)c(Cl)n2)c1O [2-413] | ≥ 80 |
| CCc1nn(-c2c(C)cc(OC(F)(F)F)cc2C)c(=O)c(-n2cc(Cl)c(C)n2)c1O [2-414] | ≥ 80 |
| CCc1nn(-c2c(C)cc(OC(F)(F)F)cc2C)c(=O)c(-n2cc(Cl)c(C(F)(F)F)n2)c1O [2-415] | ≥ 80 |
| Cc1nn(-c2c(F)cc(C(F)(F)F)cc2Br)c(=O)c(-n2ccc(C(F)(F)F)n2)c1O [2-430] | ≥ 80 |
| Cc1cc(C(F)(F)F)cc(Br)c1-n1nc(C(C)C)c(O)c(-n2ccc(C(F)(F)F)n2)c1=O [2-431] | ≥ 80 |
| Cc1cc(C(F)(F)F)cc(Cl)c1-n1nc(C)c(O)c(-n2ccc(C(F)(F)F)n2)c1=O [2-433] | ≥ 80 |
| Cc1cc(C(F)(F)F)cc(Br)c1-n1nc(C)c(O)c(-n2ccc(C(F)(F)F)n2)c1=O [2-434] | ≥ 80 |

| Compound | mortality [%] |
| --- | --- |
| Cc1cc(OC(F)(F)F)cc(F)c1-n1nc(C)c(O)c(-n2ccc(C(F)(F)F)n2)c1=O [2-435] | ≥ 80 |
| Cc1cc(C(F)(F)F)cc(C)c1-n1nc(C)c(O)c(-n2ccc(C(F)(F)F)n2)c1=O [2-436] | ≥ 80 |
| Cc1cc(C(F)(F)F)cc(C)c1-n1nc(C)c(O)c(-n2cc(F)cn2)c1=O [2-437] | ≥ 80 |
| Cc1cc(C(F)(F)F)cc(C)c1-n1nc(C(C)C)c(O)c(-n2ccc(C(F)(F)F)n2)c1=O [2-438] | ≥ 80 |
| Cc1cc(C(F)(F)F)cc(C)c1-n1nc(C(C)C)c(O)c(-n2cc(F)cn2)c1=O [2-439] | ≥ 80 |
| Cc1cc(C(F)(F)F)cc(C)c1-n1nc(C2CC2)c(O)c(-n2cc(F)cn2)c1=O [2-441] | ≥ 80 |
| Cc1cc(C(F)(F)F)cc(C)c1-n1nc(C(F)(F)F)c(O)c(-n2ccc(Cl)n2)c1=O [2-446] | ≥ 80 |
| Cc1cc(C(F)(F)F)cc(C)c1-n1nc(C(C)C)c(O)c(-n2ccc(Cl)n2)c1=O [2-448] | ≥ 80 |
| CCCc1nn(-c2c(C)cc(C(F)(F)F)cc2C)c(=O)c(-n2ccc(Cl)n2)c1O [2-449] | ≥ 80 |
| CCCCc1nn(-c2c(C)cc(C(F)(F)F)cc2C)c(=O)c(-n2ccc(Cl)n2)c1O [2-450] | ≥ 80 |
| CCCCCc1nn(-c2c(C)cc(C(F)(F)F)cc2C)c(=O)c(-n2ccc(Cl)n2)c1O [2-451] | ≥ 80 |
| Cc1cc(C(F)(F)F)cc(C)c1-n1nc(C2CC2)c(O)c(-n2ccc(Cl)n2)c1=O [2-452] | ≥ 80 |
| Cc1cc(OC(F)(F)F)cc(Cl)c1-n1nc(C(C)C)c(O)c(-n2cc(F)cn2)c1=O [2-454] | ≥ 80 |
| Cc1nn(-c2c(F)cc(C(F)(F)F)cc2Br)c(=O)c(-n2cc(F)cn2)c1O [2-458] | ≥ 80 |
| Cc1cc(C(F)(F)F)cc(Br)c1-n1nc(C(C)C)c(O)c(-n2cc(F)cn2)c1=O [2-459] | ≥ 80 |
| Cc1cc(C(F)(F)F)cc(Cl)c1-n1nc(C)c(O)c(-n2cc(F)cn2)c1=O [2-460] | ≥ 80 |
| Cc1cc(C(F)(F)F)cc(Br)c1-n1nc(C)c(O)c(-n2cc(F)cn2)c1=O [2-461] | ≥ 80 |
| Cc1cc(C(F)(F)F)cc(Cl)c1-n1nc(C)c(O)c(-n2cc(Cl)c(C(F)(F)F)n2)c1=O [2-465] | ≥ 80 |
| Cc1cc(C(F)(F)F)cc(Br)c1-n1nc(C)c(O)c(-n2cc(Cl)c(C(F)(F)F)n2)c1=O [2-466] | ≥ 80 |

| Compound | mortality [%] |
| --- | --- |
| Cc1cc(C(F)(F)F)cc(Br)c1-n1nc(C(C)C)c(O)c(-n2cc(Cl)c(C(F)(F)F)n2)c1=O [2-467] | ≥ 80 |
| Cc1cc(C(F)(F)F)cc(Br)c1-n1nc(C(C)C)c(O)c(-n2cc(Cl)cn2)c1=O [2-468] | ≥ 80 |
| Cc1nn(-c2c(F)cc(OC(F)(F)F)cc2Br)c(=O)c(-n2cc(Cl)cn2)c1O [2-470] | ≥ 80 |
| Cc1nn(-c2c(F)cc(OC(F)(F)F)cc2Br)c(=O)c(-n2ccc(C(F)(F)F)n2)c1O [2-472] | ≥ 80 |
| Cc1nn(-c2c(F)cc(OC(F)(F)F)cc2Br)c(=O)c(-n2cc(Cl)c(C(F)(F)F)n2)c1O [2-473] | ≥ 80 |
| Cc1nn(-c2c(F)cc(OC(F)(F)F)cc2Br)c(=O)c(-n2cc(F)cn2)c1O [2-474] | ≥ 80 |
| Cc1cc(C(F)(F)F)cc(Br)c1-n1nc(C)c(O)c(-n2cc(Cl)cn2)c1=O [2-475] | ≥ 80 |
| Cc1cc(OC(F)(F)F)cc(Cl)c1-n1nc(C)c(O)c(-n2cc(Cl)cn2)c1=O [2-476] | ≥ 80 |
| Cc1cc(OC(F)(F)F)cc(Cl)c1-n1nc(C(C)C)c(O)c(-n2cc(Cl)cn2)c1=O [2-477] | ≥ 80 |
| Cc1cc(C(F)(F)F)cc(F)c1-n1nc(C)c(O)c(-n2ccc(C(F)(F)F)n2)c1=O [2-478] | ≥ 80 |
| Cc1cc(OC(F)(F)F)cc(Cl)c1-n1nc(C)c(O)c(-n2cc(Cl)c(C(F)(F)F)n2)c1=O [2-480] | ≥ 80 |
| Cc1cc(OC(F)(F)F)cc(Cl)c1-n1nc(C(C)C)c(O)c(-n2cc(Cl)c(C(F)(F)F)n2)c1=O [2-481] | ≥ 80 |
| Cc1cc(OC(F)(F)F)cc(F)c1-n1nc(C)c(O)c(-n2cc(Cl)cn2)c1=O [2-482] | ≥ 80 |
| Cc1cc(C(F)(F)F)cc(F)c1-n1nc(C)c(O)c(-n2cc(Cl)cn2)c1=O [2-483] | ≥ 80 |
| Cc1cc(OC(F)(F)F)cc(F)c1-n1nc(C)c(O)c(-n2cc(Cl)c(C(F)(F)F)n2)c1=O [2-484] | ≥ 80 |
| Cc1cc(OC(F)(F)F)cc(F)c1-n1nc(C)c(O)c(-n2cc(F)cn2)c1=O [2-485] | ≥ 80 |
| Cc1cc(C(F)(F)F)cc(C)c1-n1nc(C(C)(C)C)c(O)c(-n2ccc(Cl)n2)c1=O [2-493] | ≥ 80 |
| CCc1nn(-c2ccc(C(F)(F)F)cc2C)c(=O)c(-n2cc(Br)c(C(F)(F)F)n2)c1O [2-496] | ≥ 80 |

Same assay, conditions: 800 ppm, adults, 3rd day after the application

| Compound | mortality [%] |
| --- | --- |
| C=C(C)c1cc(C(F)(F)F)ccc1-n1nc(CC)c(O)c(-n2cc(Cl)c(C(F)(F)F)n2)c1=O [2-379] | ≥ 80 |
| CCc1nn(-c2ccc(C(F)(F)F)cc2C2CC2)c(=O)c(-n2cc(Cl)c(C(F)(F)F)n2)c1O [2-380] | ≥ 80 |
| C#Cc1cc(C(F)(F)F)ccc1-n1nc(CC)c(O)c(-n2cc(Cl)c(C(F)(F)F)n2)c1=O [2-383] | ≥ 80 |
| CCc1nn(-c2c(Cl)cc(F)cc2Cl)c(=O)c(-n2cc(Cl)c(C(F)(F)F)n2)c1O [2-384] | ≥ 80 |
| CCc1nn(-c2ccc(OC(F)(F)F)cc2Cl)c(=O)c(-n2cc(Cl)c(C(F)(F)F)n2)c1O [2-386] | ≥ 80 |
| CCc1nn(-c2c(F)cc(F)cc2F)c(=O)c(-n2cc(Cl)c(C(F)(F)F)n2)c1O [2-389] | ≥ 80 |
| CC(C)c1nn(-c2c(Cl)cc(C(F)(F)F)cc2Cl)c(=O)c(-n2ccc(C(F)(F)F)n2)c1O [2-424] | ≥ 80 |
| Cc1nn(-c2c(Cl)cc(C(F)(F)F)cc2Cl)c(=O)c(-n2ccc(C(F)(F)F)n2)c1O [2-426] | ≥ 80 |
| Cc1cc(OC(F)(F)F)cc(Cl)c1-n1nc(C(C)C)c(O)c(-n2ccc(C(F)(F)F)n2)c1=O [2-428] | ≥ 80 |
| Cc1cc(OC(F)(F)F)cc(Cl)c1-n1nc(C)c(O)c(-n2ccc(C(F)(F)F)n2)c1=O [2-429] | ≥ 80 |
| Cc1cc(C(F)(F)F)cc(Cl)c1-n1nc(C(C)C)c(O)c(-n2ccc(C(F)(F)F)n2)c1=O [2-432] | ≥ 80 |
| Cc1cc(C(F)(F)F)cc(Cl)c1-n1nc(C(C)C)c(O)c(-n2cc(F)cn2)c1=O [2-453] | ≥ 80 |
| Cc1cc(C(F)(F)F)cc(Cl)c1-n1nc(C(C)C)c(O)c(-n2cc(Cl)c(C(F)(F)F)n2)c1=O [2-455] | ≥ 80 |
| Cc1cc(C(F)(F)F)cc(Cl)c1-n1nc(C(C)C)c(O)c(-n2cc(Cl)cn2)c1=O [2-456] | ≥ 80 |
| CC(C)c1nn(-c2c(Br)cc(C(F)(F)F)cc2Br)c(=O)c(-n2cc(F)cn2)c1O [2-457] | ≥ 80 |
| Cc1nn(-c2c(F)cc(C(F)(F)F)cc2Br)c(=O)c(-n2cc(Cl)c(C(F)(F)F)n2)c1O [2-462] | ≥ 80 |
| Cc1nn(-c2c(Br)cc(C(F)(F)F)cc2Br)c(=O)c(-n2cc(F)cn2)c1O [2-463] | ≥ 80 |
| Cc1cc(C(F)(F)F)cc(F)c1-n1nc(C)c(O)c(-n2cc(F)cn2)c1=O [2-464] | ≥ 80 |
| Cc1cc(C(F)(F)F)cc(Cl)c1-n1nc(C)c(O)c(-n2cc(Cl)cn2)c1=O [2-469] | ≥ 80 |
